Results published in US10988434B2, “Fragrance mixture” (SYMRISE AG, priority 2016, dated 2021).
Where two headings read alike, the source gives them in different places. At least one compound was matched to its structure with a doubt left.

Assays:
[1] = Reduction of malodour: kitchen
[2] = Reduction of malodour: smoke
[3] = Physicochemical evaluation of mesaconic acid diethyl ester; conditions: scale 1-9, the higher the value
[4] = Sensory evaluation of mesaconic acid diethyl ester
[5] = Reduction of malodour: bathroom
[6] = Reduction of malodour: sweat
[7] = scale 0-7, 1 (strong unpleasant odor) to 7 (no unpleasant odor)
[8] = scale 1-9, 1 (no odor) to 9 (strong odor)
[9] = scale 1-9, the higher the value, the higher the olfactory performance

SMILES: CCOC(=O)/C=C(\C)C(=O)OCC [Mesaconic acid diethyl ester, (E)-2-methyl-but-2-endicarboxylic acid diethyl ester]
- Reduction of kitchen odour [1, 7]: 4.5
- Scent intensity in the kitchen [1, 8]: 4.9
- Reduction of smoke odour ([2]; scale 1-7, 1 (strong unpleasant odor) to 7 (no unpleasant odor)): 3.5
- Fragrance intensity smoke [2, 8]: 4.5
- Volatility ([3]; the higher the volatility, the lower the value, the higher the adhesion): 6.4
- Polarity ([3]; the lower the polarity): 3.4
- Threshold value in air [4]: 0.047 ppm
- Diffuseness ([4]; scale 1-9): 7.2
- Dwell time on blotting paper [4, 9]: 2.7
- Effect on blotting paper [4, 9]: 5
- Flowering from water [4, 9]: 6
- Intensity in air [4, 9]: 4
- Threshold value in DEP ([4]; scale 1-13, the higher the value, the higher the olfactory performance): 6.3
- Threshold value in air ([4]; scale 5-13, the higher the value, the higher the olfactory performance): 6.4
- Reduction of bathroom odour [5, 7]: 4.1
- Scent intensity in the bathroom [5, 8]: 5.4
- Reduction of sweat odour [6, 7]: 4.2
- Scent intensity sweat [6, 8]: 5.1
